Measurements: patent US20210002231A1 (Centre National de la Recherche Scientifique, priority 2018, published 2021)

assay: general procedure: Fmoc solid-phase peptide synthesis; MBHA; DIC/HOBt; HCTU/NMM; DIC/oxyma-pure; settings: whole synthesis

First: H-Dmt-D-Arg-Aba-b-Ala-Lys(Bim)-Phe-NH2
Second: H-Dmt-D-Arg-Aba-b-Ala-Lys(Box)-Phe-NH2
The isolated yield of the first is lower: 22% for the first, 43% for the second.

H-Dmt-D-Arg-Aba-b-Ala-Lys(Bth)-Phe-NH2 gave an isolated yield of 39%.

assay: general procedure: Fmoc solid-phase peptide synthesis; FMPB-AM resin (KGFF13); MBHA-resin (KGFF14-16); 2-chlorotrityl chloride resin (dipeptide for KGFF12); DIC/HOBt; HCTU/NMM; DIC/oxyma-pure; settings: whole synthesis

Going from 7-OH-Tic-D-Arg-Aba-β-Ala-Bpa-Phe-NH2 to “Guanidyl-Dmt-D-Arg-Aba-β-Ala-Bpa-Phe-NH2”, the isolated yield rises from 1% to 10%.

H-Dmt-D-Arg-1AnaGly-Bpa-Phe-NH2 and H-Dmt-D-Arg-1AnaGly-Bpa-Trp-NH2 are the same in isolated yield: 1% for the first, 1% for the second.

First: H-Dmt-D-Arg-1AnaGly-Bpa-Val-NH2
Second: H-Dmt-D-Arg-Aba-Gly-Arg-Phe-NH2
The isolated yield of the first is lower: 4% for the first, 15% for the second.

Compared with H-Dmt-D-Arg-Aba-Gly-Arg-Phe-OH, H-Dmt-D-Arg-Aba-Gly-Orn-Phe-NH2 is lower in isolated yield: 20% for the first, 17% for the second.

Going from H-Dmt-D-Arg-Aba-b-Ala-Apa-Phe-NH2 to H-Dmt-D-Arg-Aba-b-Ala-Arg-Phe-NH2, the isolated yield falls from 20% to 18%.

First: H-Dmt-D-Arg-Aba-b-Ala-Bpa-Phe-NH2
Second: H-Dmt-D-Arg-Aba-β-Ala-Bpa-D-Phe-NH2
The isolated yield of the first is higher: 17% for the first, 1% for the second.

Going from H-Dmt-D-Arg-Aba-β-Ala-Bpa-Ile-NH2 to H-Dmt-D-Arg-Aba-β-Ala-Bpa-Leu-NH2, the isolated yield rises from 15% to 24%.

Going from H-Dmt-D-Arg-Aba-β-Ala-Bpa-Phe-β-Ala-NH2 to H-Dmt-D-Arg-Aba-β-Ala-Bpa-Trp-NH2, the isolated yield rises from 1% to 15%.

Going from H-Dmt-D-Arg-Aba-β-Ala-Bpa-Tyr-NH2 to H-Dmt-D-Arg-Aba-β-Ala-Bpa-Val-NH2, the isolated yield falls from 28% to 8%.

Going from H-Dmt-D-Arg-Aba-β-Ala-D-Bpa-Phe-NH2 to H-Dmt-D-Arg-Aba-β-Ala-THIQ-Phe-NH2, the isolated yield rises from 2% to 4%.

First: H-Dmt-D-Arg-AbaGABA-Bpa-Phe-NH2
Second: H-Dmt-D-Arg-AbaGABA-Bpa-Trp-NH2
The isolated yield of the first is higher: 2% for the first, 1% for the second.

Compared with H-Dmt-D-Arg-AbaGABA-Bpa-Val-NH2, H-Dmt-D-Arg-Phe-N(Me)-D-Ala-Bpa-Phe-NH2 is higher in isolated yield: 3% for the first, 11% for the second.

Going from H-Dmt-D-Arg-Phe-N(Me)-β-Ala-Bpa-Phe-NH2 to H-Dmt-D-Arg-Phe-N(Me)Gly-Bpa-Phe-NH2, the isolated yield rises from 5% to 27%.

Going from H-Dmt-D-Arg-Phe-N(Me)Gly-Bpa-Val-NH2 to H-Dmt-D-Bpa-Aba-β-Ala-Bpa-Phe-NH2, the isolated yield falls from 22% to 4%.

First: H-Dmt-D-Lys(Nic)-Aba-β-Ala-Bpa-Phe-NH2
Second: H-Dmt-D-Lys-Aba-β-Ala-Bpa-Phe-NH2
The isolated yield of the first is higher: 21% for the first, 9% for the second.

Going from H-Dmt-D-Orn-Aba-β-Ala-Bpa-Phe-NH2 to H-Dmt-D-Pro-Aba-β-Ala-Bpa-Phe-NH2, the isolated yield falls from 11% to 9%.

Going from H-Dmt-D-hArg-Aba-β-Ala-Bpa-Phe-NH2 to H-Dmt-N(Me)-D-Ala-1AnaGly-Bpa-Phe-NH2, the isolated yield falls from 14% to 3%.

First: H-Dmt-N(Me)-D-Ala-Aba-β-Ala-Bpa-Phe-NH2
Second: H-Dmt-N(Me)-D-Ala-AbaGABA-Bpa-Phe-NH2
The isolated yield of the first is lower: 2% for the first, 6% for the second.

Compared with H-Dmt-Nlys-Aba-β-Ala-Bpa-Phe-NH2, H-[Dmt][dR]F[Orn]F-NH2 is higher in isolated yield: 19% for the first, 27% for the second.

H-[Dmt][dR]F[βAla][Bpa]F-NH2 showed an isolated yield of 2%.

Non-standard residues stand in square brackets, D forms with d. Bpa = N[C@@H](Cc1ccc(C(=O)c2ccccc2)cc1)C(=O)O; Dmt = Cc1cc(O)cc(C)c1C[C@H](N)C(=O)O; Orn = NCCC[C@H](N)C(=O)O; βAla = NCCC(=O)O
